PubChem BioAssay AID1259254 – NCATS, 2017
Here is one part, drawn at random, of about 59,000 reagents tested. Over the whole deposit, about 1,550 (2.6%) are marked active. 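G2 share is only a proxy for re-replication; each gene was hit by three separate siRNAs, and active genes were retested.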 A number with no mark means an inactive call. The numbers tell different reagents against one gene apart. Not all columns of the deposit are shown. The record does not give: the amount of reagent.

Assay: 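Gene knock-downs that lead to re-replication, shown by excess G2 DNA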 (primary screen)
System: human HCT116 colorectal cancer cells
Reagents: single siRNA against human genes
Duration: 3 days
Read-out: 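Nuclei stained with Hoechst and imaged; cell-cycle phase assigned by DNA content; G2 share scaled per plate, non-targeting siRNA 0%, GMNN siRNA 100%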
Direction: G2 robust z-score and G2 cells, % of GMNN control: higher = more G2 cells, more excess DNA replication
Hit rule: 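Active siRNAs have a G2 robust z of 5 or more median absolute deviations over the median, which in these data means about 38% or higher of GMNN control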

For RAB22A (RAB22A, member RAS oncogene family) #1, the values are G2 robust z-score 0.477; G2 cells, % of GMNN control 6.32.
RAB22A (RAB22A, member RAS oncogene family) #2 scored G2 robust z-score 0.029; G2 cells, % of GMNN control 3.17.
After knock-down of RAB22A (RAB22A, member RAS oncogene family) #3, the record shows G2 robust z-score -0.764; G2 cells, % of GMNN control -2.41.
After knock-down of TAS2R5 (taste 2 receptor member 5) #1, the record shows G2 robust z-score 1.44; G2 cells, % of GMNN control 13.1.
After knock-down of TAS2R5 (taste 2 receptor member 5) #2, the record shows G2 robust z-score -0.717; G2 cells, % of GMNN control -2.08.
TAS2R5 (taste 2 receptor member 5) #3 scored G2 robust z-score 2.85; G2 cells, % of GMNN control 23.
Silencing of TCF7L1 (transcription factor 7 like 1) #1 resulted in: G2 robust z-score -0.0501; G2 cells, % of GMNN control 2.61.
TCF7L1 (transcription factor 7 like 1) #2 showed G2 robust z-score 3.26; G2 cells, % of GMNN control 25.9.
With knock-down of TCF7L1 (transcription factor 7 like 1) #3 the results were G2 robust z-score 0.907; G2 cells, % of GMNN control 9.35.
Depletion of PLK1 (polo like kinase 1) #1 came out at: G2 robust z-score 14.9 (active); G2 cells, % of GMNN control 108.
After knock-down of PLK1 (polo like kinase 1) #2, the screen gave G2 robust z-score 11.7 (active); G2 cells, % of GMNN control 85.1.
Knock-down of PLK1 (polo like kinase 1) #3 gave: G2 robust z-score 9.69 (active); G2 cells, % of GMNN control 71.1.
With knock-down of SPIN1 (spindlin 1) #1 the results were G2 robust z-score 0.957; G2 cells, % of GMNN control 9.7.
Against SPIN1 (spindlin 1) #2, the values are G2 robust z-score -0.00469; G2 cells, % of GMNN control 2.93.
Depletion of SPIN1 (spindlin 1) #3 gave: G2 robust z-score -0.707; G2 cells, % of GMNN control -2.01.
Silencing of ARHGEF7 (Rho guanine nucleotide exchange factor 7) #1 resulted in: G2 robust z-score 0.583; G2 cells, % of GMNN control 7.07.
With knock-down of ARHGEF7 (Rho guanine nucleotide exchange factor 7) #2, the screen gave G2 robust z-score -1.02; G2 cells, % of GMNN control -4.18.
With knock-down of ARHGEF7 (Rho guanine nucleotide exchange factor 7) #3, the screen gave G2 robust z-score 1.61; G2 cells, % of GMNN control 14.3.

3 entries already listed, sorted by “G2 robust z-score”, descending:
SPIN1 (spindlin 1) #1 | G2 robust z-score: 0.957; G2 cells, % of GMNN control: 9.7
SPIN1 (spindlin 1) #2 | G2 robust z-score: -0.00469; G2 cells, % of GMNN control: 2.93
SPIN1 (spindlin 1) #3 | G2 robust z-score: -0.707; G2 cells, % of GMNN control: -2.01
